From the supplement of paper PMC10849652
This is one part of the list.

Sequences of proteins named here, by UniProt entry; tags and fusion partners are left off. A change or cut given only in a name is not applied to a line headed by its entry.
UniProt Q5T5U3: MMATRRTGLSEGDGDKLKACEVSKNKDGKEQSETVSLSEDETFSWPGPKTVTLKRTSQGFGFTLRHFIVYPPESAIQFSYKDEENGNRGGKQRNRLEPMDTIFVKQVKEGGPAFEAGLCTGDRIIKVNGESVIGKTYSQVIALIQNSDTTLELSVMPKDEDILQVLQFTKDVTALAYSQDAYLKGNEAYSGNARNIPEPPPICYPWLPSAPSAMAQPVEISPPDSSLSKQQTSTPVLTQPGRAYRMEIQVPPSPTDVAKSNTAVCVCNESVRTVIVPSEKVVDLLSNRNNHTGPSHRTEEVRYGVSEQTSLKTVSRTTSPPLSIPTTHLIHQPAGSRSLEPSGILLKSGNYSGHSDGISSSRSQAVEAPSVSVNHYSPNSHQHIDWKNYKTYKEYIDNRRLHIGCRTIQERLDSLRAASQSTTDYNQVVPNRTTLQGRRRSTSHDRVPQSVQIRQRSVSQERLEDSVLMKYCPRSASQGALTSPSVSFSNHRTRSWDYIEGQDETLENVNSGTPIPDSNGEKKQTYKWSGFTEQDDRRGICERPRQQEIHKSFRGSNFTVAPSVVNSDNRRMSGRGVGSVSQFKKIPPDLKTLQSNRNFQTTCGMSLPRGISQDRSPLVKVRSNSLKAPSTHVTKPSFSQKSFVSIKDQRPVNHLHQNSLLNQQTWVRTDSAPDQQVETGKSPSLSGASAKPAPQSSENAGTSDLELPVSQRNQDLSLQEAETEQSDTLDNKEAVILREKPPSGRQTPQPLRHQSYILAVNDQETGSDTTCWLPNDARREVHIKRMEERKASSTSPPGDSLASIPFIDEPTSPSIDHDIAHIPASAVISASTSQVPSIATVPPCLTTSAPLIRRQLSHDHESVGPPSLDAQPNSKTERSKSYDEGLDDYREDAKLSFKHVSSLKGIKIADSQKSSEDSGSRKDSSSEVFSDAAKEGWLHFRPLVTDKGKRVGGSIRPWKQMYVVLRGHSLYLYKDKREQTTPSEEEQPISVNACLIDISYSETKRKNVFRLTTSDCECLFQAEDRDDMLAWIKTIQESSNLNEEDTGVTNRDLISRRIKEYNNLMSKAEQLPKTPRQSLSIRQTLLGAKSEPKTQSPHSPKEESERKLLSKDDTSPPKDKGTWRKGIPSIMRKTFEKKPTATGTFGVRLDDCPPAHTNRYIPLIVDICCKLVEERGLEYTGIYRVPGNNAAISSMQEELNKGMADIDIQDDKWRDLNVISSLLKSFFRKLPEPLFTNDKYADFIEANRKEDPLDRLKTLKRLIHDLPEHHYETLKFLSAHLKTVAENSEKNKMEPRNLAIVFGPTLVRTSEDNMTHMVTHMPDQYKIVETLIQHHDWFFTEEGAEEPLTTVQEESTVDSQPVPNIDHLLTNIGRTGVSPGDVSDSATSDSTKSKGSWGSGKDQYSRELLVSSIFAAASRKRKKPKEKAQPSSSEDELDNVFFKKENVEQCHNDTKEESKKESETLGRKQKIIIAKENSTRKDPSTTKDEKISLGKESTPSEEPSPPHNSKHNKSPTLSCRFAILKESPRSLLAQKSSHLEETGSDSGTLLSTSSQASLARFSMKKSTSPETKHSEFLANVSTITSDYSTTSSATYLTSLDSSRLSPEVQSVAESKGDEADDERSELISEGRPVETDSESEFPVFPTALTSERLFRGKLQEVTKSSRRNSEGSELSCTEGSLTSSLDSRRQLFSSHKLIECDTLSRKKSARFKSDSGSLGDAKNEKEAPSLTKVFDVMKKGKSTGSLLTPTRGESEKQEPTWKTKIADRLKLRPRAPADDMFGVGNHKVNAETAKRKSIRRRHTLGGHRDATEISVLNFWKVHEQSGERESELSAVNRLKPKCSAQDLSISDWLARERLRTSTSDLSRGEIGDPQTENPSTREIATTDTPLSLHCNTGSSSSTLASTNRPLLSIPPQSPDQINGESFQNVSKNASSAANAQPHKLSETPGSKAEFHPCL
UniProt P53367: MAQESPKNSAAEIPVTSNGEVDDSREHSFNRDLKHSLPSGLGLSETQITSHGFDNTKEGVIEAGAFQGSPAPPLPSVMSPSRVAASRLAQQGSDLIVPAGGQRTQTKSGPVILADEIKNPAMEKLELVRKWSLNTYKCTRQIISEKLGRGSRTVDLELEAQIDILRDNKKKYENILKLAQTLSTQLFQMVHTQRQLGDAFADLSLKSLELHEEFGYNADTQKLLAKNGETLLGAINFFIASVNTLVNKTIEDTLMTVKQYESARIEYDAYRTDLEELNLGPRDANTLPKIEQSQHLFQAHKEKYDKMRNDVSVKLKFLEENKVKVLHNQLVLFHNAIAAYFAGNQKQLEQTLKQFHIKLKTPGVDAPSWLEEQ
UniProt Q96P48: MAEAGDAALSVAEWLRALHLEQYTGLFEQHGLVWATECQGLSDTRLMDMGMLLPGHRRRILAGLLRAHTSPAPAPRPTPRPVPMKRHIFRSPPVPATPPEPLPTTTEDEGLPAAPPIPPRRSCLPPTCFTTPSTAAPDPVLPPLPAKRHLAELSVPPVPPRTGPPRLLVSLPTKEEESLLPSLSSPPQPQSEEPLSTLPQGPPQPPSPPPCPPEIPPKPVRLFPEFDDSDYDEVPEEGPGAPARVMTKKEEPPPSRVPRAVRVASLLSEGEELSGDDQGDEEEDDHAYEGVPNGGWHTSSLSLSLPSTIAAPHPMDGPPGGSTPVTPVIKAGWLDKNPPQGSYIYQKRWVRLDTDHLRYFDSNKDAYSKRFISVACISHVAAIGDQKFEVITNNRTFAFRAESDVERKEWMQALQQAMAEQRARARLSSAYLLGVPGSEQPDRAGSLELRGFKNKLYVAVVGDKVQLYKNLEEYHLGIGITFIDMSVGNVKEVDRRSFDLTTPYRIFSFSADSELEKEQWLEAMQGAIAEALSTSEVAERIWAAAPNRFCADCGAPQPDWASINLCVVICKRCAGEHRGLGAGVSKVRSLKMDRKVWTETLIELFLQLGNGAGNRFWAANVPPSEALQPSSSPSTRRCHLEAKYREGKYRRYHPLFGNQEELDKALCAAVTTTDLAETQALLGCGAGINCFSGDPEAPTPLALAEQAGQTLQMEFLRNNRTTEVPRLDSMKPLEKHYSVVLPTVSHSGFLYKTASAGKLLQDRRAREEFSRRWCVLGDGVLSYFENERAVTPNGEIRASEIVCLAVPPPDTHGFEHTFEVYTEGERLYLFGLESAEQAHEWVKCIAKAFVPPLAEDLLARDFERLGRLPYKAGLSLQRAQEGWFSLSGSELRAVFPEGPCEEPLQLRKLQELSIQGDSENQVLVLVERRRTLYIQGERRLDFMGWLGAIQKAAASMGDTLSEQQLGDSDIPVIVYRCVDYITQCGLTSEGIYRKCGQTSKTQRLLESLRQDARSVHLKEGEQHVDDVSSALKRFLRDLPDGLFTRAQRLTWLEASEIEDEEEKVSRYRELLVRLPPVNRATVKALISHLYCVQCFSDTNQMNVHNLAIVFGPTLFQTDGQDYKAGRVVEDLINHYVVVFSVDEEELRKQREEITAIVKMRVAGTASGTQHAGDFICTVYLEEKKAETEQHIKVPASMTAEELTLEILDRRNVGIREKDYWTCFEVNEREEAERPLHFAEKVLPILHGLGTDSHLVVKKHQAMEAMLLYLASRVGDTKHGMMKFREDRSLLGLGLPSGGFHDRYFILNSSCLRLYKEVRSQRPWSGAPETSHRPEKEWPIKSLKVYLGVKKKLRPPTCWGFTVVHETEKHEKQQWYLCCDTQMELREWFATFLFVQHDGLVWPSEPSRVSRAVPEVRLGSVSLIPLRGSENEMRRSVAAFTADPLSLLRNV
UniProt Q9NQW6: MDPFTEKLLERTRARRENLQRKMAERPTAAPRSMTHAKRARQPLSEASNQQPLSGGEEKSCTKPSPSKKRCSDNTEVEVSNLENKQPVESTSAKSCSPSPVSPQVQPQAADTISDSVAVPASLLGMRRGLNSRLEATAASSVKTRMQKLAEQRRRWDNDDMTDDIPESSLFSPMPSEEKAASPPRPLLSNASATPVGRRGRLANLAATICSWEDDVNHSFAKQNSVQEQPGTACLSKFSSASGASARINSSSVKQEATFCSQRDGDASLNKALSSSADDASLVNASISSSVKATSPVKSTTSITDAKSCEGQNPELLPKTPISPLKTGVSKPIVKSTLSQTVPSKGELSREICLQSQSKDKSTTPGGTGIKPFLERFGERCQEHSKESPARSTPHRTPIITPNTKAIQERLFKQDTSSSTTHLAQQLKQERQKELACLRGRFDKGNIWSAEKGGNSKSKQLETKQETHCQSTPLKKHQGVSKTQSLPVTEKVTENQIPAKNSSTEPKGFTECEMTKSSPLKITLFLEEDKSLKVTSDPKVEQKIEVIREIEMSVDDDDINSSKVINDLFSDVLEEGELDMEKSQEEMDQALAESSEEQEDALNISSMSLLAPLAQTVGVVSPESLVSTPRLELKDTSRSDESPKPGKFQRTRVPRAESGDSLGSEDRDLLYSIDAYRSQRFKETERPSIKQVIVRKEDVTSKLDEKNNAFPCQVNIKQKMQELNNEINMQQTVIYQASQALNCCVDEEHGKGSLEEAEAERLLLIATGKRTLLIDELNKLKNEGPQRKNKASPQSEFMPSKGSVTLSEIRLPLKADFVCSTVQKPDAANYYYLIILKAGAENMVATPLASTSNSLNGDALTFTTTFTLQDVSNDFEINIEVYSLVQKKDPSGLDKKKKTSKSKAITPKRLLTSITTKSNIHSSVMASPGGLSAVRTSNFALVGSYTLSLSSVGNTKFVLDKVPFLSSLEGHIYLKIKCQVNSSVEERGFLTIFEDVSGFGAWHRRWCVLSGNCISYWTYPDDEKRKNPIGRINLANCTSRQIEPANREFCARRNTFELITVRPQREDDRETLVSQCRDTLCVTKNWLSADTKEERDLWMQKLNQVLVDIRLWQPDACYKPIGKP
UniProt Q9H0R1: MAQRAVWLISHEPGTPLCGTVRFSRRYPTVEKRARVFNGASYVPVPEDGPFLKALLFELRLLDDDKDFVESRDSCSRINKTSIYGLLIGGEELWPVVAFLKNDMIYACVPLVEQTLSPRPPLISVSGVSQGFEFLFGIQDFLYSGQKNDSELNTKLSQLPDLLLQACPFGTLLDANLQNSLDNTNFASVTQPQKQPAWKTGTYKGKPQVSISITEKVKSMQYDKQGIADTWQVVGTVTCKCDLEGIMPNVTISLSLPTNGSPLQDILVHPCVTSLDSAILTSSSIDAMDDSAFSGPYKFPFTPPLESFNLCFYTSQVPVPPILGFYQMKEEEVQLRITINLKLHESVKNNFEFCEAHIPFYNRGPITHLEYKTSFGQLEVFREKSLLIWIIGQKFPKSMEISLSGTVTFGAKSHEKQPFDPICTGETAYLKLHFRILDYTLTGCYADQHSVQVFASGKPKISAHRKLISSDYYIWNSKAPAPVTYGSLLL
UniProt P02655: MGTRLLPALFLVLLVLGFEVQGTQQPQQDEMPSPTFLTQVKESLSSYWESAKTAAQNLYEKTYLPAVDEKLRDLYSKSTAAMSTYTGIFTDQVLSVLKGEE
UniProt Q8NB46: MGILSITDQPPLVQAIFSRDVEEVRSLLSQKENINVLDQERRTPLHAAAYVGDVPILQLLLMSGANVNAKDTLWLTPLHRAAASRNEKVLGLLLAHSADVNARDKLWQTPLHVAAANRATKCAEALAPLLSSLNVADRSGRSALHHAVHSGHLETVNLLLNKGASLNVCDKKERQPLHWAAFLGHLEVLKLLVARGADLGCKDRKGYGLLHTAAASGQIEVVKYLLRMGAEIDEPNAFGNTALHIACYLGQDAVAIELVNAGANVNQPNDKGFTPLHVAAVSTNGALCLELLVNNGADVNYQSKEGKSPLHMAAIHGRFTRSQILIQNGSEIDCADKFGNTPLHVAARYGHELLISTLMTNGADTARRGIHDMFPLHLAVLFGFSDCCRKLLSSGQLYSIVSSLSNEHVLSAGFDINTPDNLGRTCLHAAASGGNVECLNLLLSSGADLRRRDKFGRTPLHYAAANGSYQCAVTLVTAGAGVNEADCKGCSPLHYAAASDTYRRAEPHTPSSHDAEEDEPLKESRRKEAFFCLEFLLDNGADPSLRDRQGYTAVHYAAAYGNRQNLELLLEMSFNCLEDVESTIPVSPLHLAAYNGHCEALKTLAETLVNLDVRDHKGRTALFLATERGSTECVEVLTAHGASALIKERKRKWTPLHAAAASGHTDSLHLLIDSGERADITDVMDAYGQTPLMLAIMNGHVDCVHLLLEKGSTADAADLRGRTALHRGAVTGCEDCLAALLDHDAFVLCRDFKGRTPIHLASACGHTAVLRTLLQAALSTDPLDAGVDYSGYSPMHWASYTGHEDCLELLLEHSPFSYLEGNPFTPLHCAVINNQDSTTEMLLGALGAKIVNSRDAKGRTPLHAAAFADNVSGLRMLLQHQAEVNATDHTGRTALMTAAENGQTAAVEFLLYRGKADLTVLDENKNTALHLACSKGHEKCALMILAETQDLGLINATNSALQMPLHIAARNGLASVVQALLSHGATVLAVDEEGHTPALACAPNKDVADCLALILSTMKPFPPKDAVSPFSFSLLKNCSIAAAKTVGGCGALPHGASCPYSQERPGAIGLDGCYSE

The targets below were run with O=C(CCCCCCC(=O)Nc1ccccc1)NO [vorinostat] (assay: log2 fold change, soluble protein after heating vs DMSO (PISA); higher = thermal stabilisation; K562 cells, 10 uM, 30 min; active = over 0.2 and 3.5 SD of the protein, either way, in both replicates (recomputed)).
How it was run: (§1)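 K562 cells at 2×10^6 cells/mL were treated with 10 μM compound for 30 min. Aliquots were heated for 3 min across 48°C-58°C, pooled, and extracted in PBS with 0.5% NP-40 at 4°C; soluble protein was the supernatant after 21,000xg for 90 min. Soluble protein was quantified by TMTpro 16plex LC-MS/MS with channel sums equalised, and reported as log2 fold change in thermal stability against DMSO controls, with values from duplicates.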

log2 fold change, inactive:
ARHGAP21 (UniProt Q5T5U3) -0.057
ANKRD36 (UniProt A6QL64) -0.229
AP4B1 (UniProt Q9Y6B7) 0.133
ARFIP1 isoform 2 (UniProt P53367) 0.331
ARHGAP22 isoform 2 (UniProt Q7Z5H3) 0.116
ARHGAP35 (UniProt Q9NRY4) 0.148
ARAP1 (UniProt Q96P48) 0.065
ANKH (UniProt Q9HCJ1) -0.256
APH1B (UniProt Q8WW43) -0.015
ANLN (UniProt Q9NQW6) 0.137
AP5M1 (UniProt Q9H0R1) 0.188
APTX (UniProt Q7Z2E3) 0.035
APPBP2 (UniProt Q92624) -0.183
APOC2 (UniProt P02655) -0.067
AP1B1 isoform 3 (UniProt Q10567) 0.079
ARHGAP25 isoform 4 (UniProt P42331) -0.099

Each target was assayed with O=C(CCCCCCNC(=O)c1cnc(N(c2ccccc2)c2ccccc2Cl)nc1)NO [citarinostat] in the same assay as above.
How it was run: as §1

log2 fold change, inactive:
APC (UniProt P25054) -0.027
APOL1 isoform 2 (UniProt O14791) 0.101
ARHGAP5 (UniProt Q13017) 0.169
APOBEC3F (UniProt Q8IUX4) -0.078
ANKRD36 (UniProt A6QL64) -0.157
AP4B1 (UniProt Q9Y6B7) -0.014
ARHGAP22 isoform 2 (UniProt Q7Z5H3) 0.17
ANKS1A (UniProt Q92625) 0.098
ARHGAP35 (UniProt Q9NRY4) 0.015
APP (UniProt P05067) 0.197
ARAP1 (UniProt Q96P48) 0.032
ANKH (UniProt Q9HCJ1) -0.314
ANKRD13C (UniProt Q8N6S4) 0.118
ANKRD52 (UniProt Q8NB46) 0.093
ANLN (UniProt Q9NQW6) 0.218
AP5M1 (UniProt Q9H0R1) -0.048
AP1B1 isoform 3 (UniProt Q10567) 0.128
ARHGAP25 isoform 4 (UniProt P42331) 0.105

These targets were tested with O=C(O)c1ccc2c(c1)nc(Nc1cccc(Cl)c1)c1ccncc12 [silmitasertib] in the same assay as above.
How it was run: as §1

log2 fold change, inactive:
ARHGAP21 (UniProt Q5T5U3) 0.176
APOA4 (UniProt P06727) 0.127
ANKRD16 (UniProt Q6P6B7) 0.231
ANKRD36 (UniProt A6QL64) 0.213
ARFIP1 isoform 2 (UniProt P53367) -0.08
ANKRD11 (UniProt Q6UB99) 0.205
ARHGAP35 (UniProt Q9NRY4) 0.18
APP (UniProt P05067) 0.049
AP3M2 (UniProt P53677) -0.017
ARAP1 (UniProt Q96P48) 0.505
ARID4B (UniProt Q4LE39) 0.103
ANKRD52 (UniProt Q8NB46) 0.037
ANLN (UniProt Q9NQW6) 0.1
AP5M1 (UniProt Q9H0R1) -0.169
APOC2 (UniProt P02655) 0.067
AP1B1 isoform 3 (UniProt Q10567) -0.025
ARHGAP25 isoform 4 (UniProt P42331) 0.213
AP5S1 (UniProt Q9NUS5) -0.017

What follows are targets tested with O=C1NC(=O)C(c2cnc3ccccn23)=C1c1cn2c3c(cc(F)cc13)CN(C(=O)N1CCCCC1)CC2 in the same assay as above.
How it was run: as §1

log2 fold change, inactive:
APC (UniProt P25054) 0.127
API5 isoform 1 (UniProt Q9BZZ5) -0.018
APBA2 (UniProt Q99767) -0.063
ARHGAP21 (UniProt Q5T5U3) 0.081
APOA4 (UniProt P06727) 0.134
ARHGAP5 (UniProt Q13017) -0.005
APOBEC3F (UniProt Q8IUX4) 0.324
ANKRD16 (UniProt Q6P6B7) 0.042
ANKRD36 (UniProt A6QL64) -0.392
ARFIP1 isoform 2 (UniProt P53367) -0.062
ANKS1A (UniProt Q92625) -0.096
ARHGAP35 (UniProt Q9NRY4) 0.184
APP (UniProt P05067) 0.052
ARAP1 (UniProt Q96P48) 0.288
ANKRD13C (UniProt Q8N6S4) -0.146
ANXA2 (UniProt H0YMT9) -0.201
ANKRD52 (UniProt Q8NB46) 0.116
ANLN (UniProt Q9NQW6) -0.116
AP5M1 (UniProt Q9H0R1) 0.02
APTX (UniProt Q7Z2E3) 0.056
AP1B1 isoform 3 (UniProt Q10567) 0.284
ARHGAP25 isoform 4 (UniProt P42331) 0.021
